No constants are given. Whether binding was seen depends on the method and setting. Binding seen in cells or lysates may run through a third protein. A yes stands for co-enrichment or nearness to the bait. Other partners may have been found. For some assays here: Sequences can lack the tags named with a protein.
B1: PA2G4 (protein, UniProt Q9UQ80 1-394)
chain: MSGEDEQQEQTIAEDLVVTKYKMGGDIANRVLRSLVEASSSGVSVLSLCEKGDAMIMEETGKIFKKEKEMKKGIAFPTSISVNNCVCHFSPLKSDQDYILKEGDLVKIDLGVHVDGFIANVAHTFVVDVAQGTQVTGRKADVIKAAHLCAEAALRLVKPGNQNTQVTEAWNKVAHSFNCTPIEGMLSHQLKQHVIDGEKTIIQNPTDQQKKDHEKAEFEVHEVYAVDVLVSSGEGKAKDAGQRTTIYKRDPSKQYGLKMKTSRAFFSEVERRFDAMPFTLRAFEDEKKARMGVVECAKHELLQPFNVLYEKEGEFVAQFKFTVLLMPNGPMRITSGPFEPDLYKSEMEVQDAELKALLQSSASRKTQKKKKKKASKTAENATSGETLEENEAGD
B2: RRP1B (protein, UniProt Q14684 1-758)
chain: MAPAMQPAEIQFAQRLASSEKGIRDRAVKKLRQYISVKTQRETGGFSQEELLKIWKGLFYCMWVQDEPLLQEELANTIAQLVHAVNNSAAQHLFIQTFWQTMNREWKGIDRLRLDKYYMLIRLVLRQSFEVLKRNGWEESRIKVFLDVLMKEVLCPESQSPNGVRFHFIDIYLDELSKVGGKELLADQNLKFIDPFCKIAAKTKDHTLVQTIARGVFEAIVDQSPFVPEETMEEQKTKVGDGDLSAEEIPENEVSLRRAVSKKKTALGKNHSRKDGLSDERGRDDCGTFEDTGPLLQFDYKAVADRLLEMTSRKNTPHFNRKRLSKLIKKFQDLSEGSSISQLSFAEDISADEDDQILSQGKHKKKGNKLLEKTNLEKEKGSRVFCVEEEDSESSLQKRRRKKKKKHHLQPENPGPGGAAPSLEQNRGREPEASGLKALKARVAEPGAEATSSTGEESGSEHPPAVPMHNKRKRPRKKSPRAHREMLESAVLPPEDMSQSGPSGSHPQGPRGSPTGGAQLLKRKRKLGVVPVNGSGLSTPAWPPLQQEGPPTGPAEGANSHTTLPQRRRLQKKKAGPGSLELCGLPSQKTASLKKRKKMRVMSNLVEHNGVLESEAGQPQALGSSGTCSSLKKQKLRAESDFVKFDTPFLPKPLFFRRAKSSTATHPPGPAVQLNKTPSSSKKVTFGLNRNMTAEFKKTDKSILVSPTGPSRVAFDPEQKPLHGVLKTPTSSPASSPLVAKKPLTTTPRRRPRAMDFF
B3: CCDC124 (protein, UniProt Q96CT7 1-223)
chain: MPKKFQGENTKSAAARARRAEAKAAADAKKQKELEDAYWKDDDKHVMRKEQRKEEKEKRRLDQLERKKETQRLLEEEDSKLKGGKAPRVATSSKVTRAQIEDTLRRDHQLREAPDTAEKAKSHLEVPLEENVNRRVLEEGSVEARTIEDAIAVLSVAEEAADRHPERRMRAAFTAFEEAQLPRLKQENPNMRLSQLKQLLKKEWLRSPDNPMNQRAVPFNAPK
B4: ILF3 (protein, UniProt Q12906 1-894)
chain: MRPMRIFVNDDRHVMAKHSSVYPTQEELEAVQNMVSHTERALKAVSDWIDEQEKGSSEQAESDNMDVPPEDDSKEGAGEQKTEHMTRTLRGVMRVGLVAKGLLLKGDLDLELVLLCKEKPTTALLDKVADNLAIQLAAVTEDKYEILQSVDDAAIVIKNTKEPPLSLTIHLTSPVVREEMEKVLAGETLSVNDPPDVLDRQKCLAALASLRHAKWFQARANGLKSCVIVIRVLRDLCTRVPTWGPLRGWPLELLCEKSIGTANRPMGAGEALRRVLECLASGIVMPDGSGIYDPCEKEATDAIGHLDRQQREDITQSAQHALRLAAFGQLHKVLGMDPLPSKMPKKPKNENPVDYTVQIPPSTTYAITPMKRPMEEDGEEKSPSKKKKKIQKKEEKAEPPQAMNALMRLNQLKPGLQYKLVSQTGPVHAPIFTMSVEVDGNSFEASGPSKKTAKLHVAVKVLQDMGLPTGAEGRDSSKGEDSAEETEAKPAVVAPAPVVEAVSTPSAAFPSDATAEQGPILTKHGKNPVMELNEKRRGLKYELISETGGSHDKRFVMEVEVDGQKFQGAGSNKKVAKAYAALAALEKLFPDTPLALDANKKKRAPVPVRGGPKFAAKPHNPGFGMGGPMHNEVPPPPNLRGRGRGGSIRGRGRGRGFGGANHGGYMNAGAGYGSYGYGGNSATAGYSQFYSNGGHSGNASGGGGGGGGGSSGYGSYYQGDNYNSPVPPKHAGKKQPHGGQQKPSYGSGYQSHQGQQQSYNQSPYSNYGPPQGKQKGYNHGQGSYSYSNSYNSPGGGGGSDYNYESKFNYSGSGGRSGGNSYGSGGASYNPGSHGGYGGGSGGGSSYQGKQGGYSQSNYNSPGSGQNYSGPPSSYQSSQGGYGRNADHSMNYQYR
B5: MTDH (protein, UniProt Q86UE4 1-582)
chain: MAARSWQDELAQQAEEGSARLREMLSVGLGFLRTELGLDLGLEPKRYPGWVILVGTGALGLLLLFLLGYGWAAACAGARKKRRSPPRKREEAAAVPAAAPDDLALLKNLRSEEQKKKNRKKLSEKPKPNGRTVEVAEGEAVRTPQSVTAKQPPEIDKKNEKSKKNKKKSKSDAKAVQNSSRHDGKEVDEGAWETKISHREKRQQRKRDKVLTDSGSLDSTIPGIENTITVTTEQLTTASFPVGSKKNKGDSHLNVQVSNFKSGKGDSTLQVSSGLNENLTVNGGGWNEKSVKLSSQISAGEEKWNSVSPASAGKRKTEPSAWSQDTGDANTNGKDWGRSWSDRSIFSGIGSTAEPVSQSTTSDYQWDVSRNQPYIDDEWSGLNGLSSADPNSDWNAPAEEWGNWVDEERASLLKSQEPIPDDQKVSDDDKEKGEGALPTGKSKKKKKKKKKQGEDNSTAQDTEELEKEIREDLPVNTSKTRPKQEKAFSLKTISTSDPAEVLVKNSQPIKTLPPATSTEPSVILSKSDSDKSSSQVPPILQETDKSKSNTKQNSVPPSQTKSETSWESPKQIKKKKKARRET
B6: LUC7L3 (protein, UniProt O95232 1-432)
chain: MISAAQLLDELMGRDRNLAPDEKRSNVRWDHESVCKYYLCGFCPAELFTNTRSDLGPCEKIHDENLRKQYEKSSRFMKVGYERDFLRYLQSLLAEVERRIRRGHARLALSQNQQSSGAAGPTGKNEEKIQVLTDKIDVLLQQIEELGSEGKVEEAQGMMKLVEQLKEERELLRSTTSTIESFAAQEKQMEVCEVCGAFLIVGDAQSRVDDHLMGKQHMGYAKIKATVEELKEKLRKRTEEPDRDERLKKEKQEREEREKEREREREERERKRRREEEEREKERARDRERRKRSRSRSRHSSRTSDRRCSRSRDHKRSRSRERRRSRSRDRRRSRSHDRSERKHRSRSRDRRRSKSRDRKSYKHRSKSRDREQDRKSKEKEKRGSDDKKSSVKSGSREKQSEDTNTESKESDTKNEVNGTSEDIKSEGDTQSN
B7: NONO (protein, UniProt Q15233 1-471)
chain: MQSNKTFNLEKQNHTPRKHHQHHHQQQHHQQQQQQPPPPPIPANGQQASSQNEGLTIDLKNFRKPGEKTFTQRSRLFVGNLPPDITEEEMRKLFEKYGKAGEVFIHKDKGFGFIRLETRTLAEIAKVELDNMPLRGKQLRVRFACHSASLTVRNLPQYVSNELLEEAFSVFGQVERAVVIVDDRGRPSGKGIVEFSGKPAARKALDRCSEGSFLLTTFPRPVTVEPMDQLDDEEGLPEKLVIKNQQFHKEREQPPRFAQPGSFEYEYAMRWKALIEMEKQQQDQVDRNIKEAREKLEMEMEAARHEHQVMLMRQDLMRRQEELRRMEELHNQEVQKRKQLELRQEEERRRREEEMRRQQEEMMRRQQEGFKGTFPDAREQEIRMGQMAMGGAMGINNRGAMPPAPVPAGTPAPPGPATMMPDGTLGLTPPTTERFGQAATMEGIGAIGGTPPAFNRAAPGAEFAPNKRRRY
B8: EZH1, Q92800 1-747 (protein)
chain: MEIPNPPTSKCITYWKRKVKSEYMRLRQLKRLQANMGAKALYVANFAKVQEKTQILNEEWKKLRVQPVQSMKPVSGHPFLKKCTIESIFPGFASQHMLMRSLNTVALVPIMYSWSPLQQNFMVEDETVLCNIPYMGDEVKEEDETFIEELINNYDGKVHGEEEMIPGSVLISDAVFLELVDALNQYSDEEEEGHNDTSDGKQDDSKEDLPVTRKRKRHAIEGNKKSSKKQFPNDMIFSAIASMFPENGVPDDMKERYRELTEMSDPNALPPQCTPNIDGPNAKSVQREQSLHSFHTLFCRRCFKYDCFLHPFHATPNVYKRKNKEIKIEPEPCGTDCFLLLEGAKEYAMLHNPRSKCSGRRRRRHHIVSASCSNASASAVAETKEGDSDRDTGNDWASSSSEANSRCQTPTKQKASPAPPQLCVVEAPSEPVEWTGAEESLFRVFHGTYFNNFCSIARLLGTKTCKQVFQFAVKESLILKLPTDELMNPSQKKKRKHRLWAAHCRKIQLKKDNSSTQVYNYQPCDHPDRPCDSTCPCIMTQNFCEKFCQCNPDCQNRFPGCRCKTQCNTKQCPCYLAVRECDPDLCLTCGASEHWDCKVVSCKNCSIQRGLKKHLLLAPSDVAGWGTFIKESVQKNEFISEYCGELISQDEADRRGKVYDKYMSSFLFNLNNDFVVDATRKGNKIRFANHSVNPNCYAKVVMVNGDHRIGIFAKRAIQAGEELFFDYRYSQADALKYVGIERETDVL

Chains of the proteins cited; added tags and fusions are not shown.
UniProt Q15910: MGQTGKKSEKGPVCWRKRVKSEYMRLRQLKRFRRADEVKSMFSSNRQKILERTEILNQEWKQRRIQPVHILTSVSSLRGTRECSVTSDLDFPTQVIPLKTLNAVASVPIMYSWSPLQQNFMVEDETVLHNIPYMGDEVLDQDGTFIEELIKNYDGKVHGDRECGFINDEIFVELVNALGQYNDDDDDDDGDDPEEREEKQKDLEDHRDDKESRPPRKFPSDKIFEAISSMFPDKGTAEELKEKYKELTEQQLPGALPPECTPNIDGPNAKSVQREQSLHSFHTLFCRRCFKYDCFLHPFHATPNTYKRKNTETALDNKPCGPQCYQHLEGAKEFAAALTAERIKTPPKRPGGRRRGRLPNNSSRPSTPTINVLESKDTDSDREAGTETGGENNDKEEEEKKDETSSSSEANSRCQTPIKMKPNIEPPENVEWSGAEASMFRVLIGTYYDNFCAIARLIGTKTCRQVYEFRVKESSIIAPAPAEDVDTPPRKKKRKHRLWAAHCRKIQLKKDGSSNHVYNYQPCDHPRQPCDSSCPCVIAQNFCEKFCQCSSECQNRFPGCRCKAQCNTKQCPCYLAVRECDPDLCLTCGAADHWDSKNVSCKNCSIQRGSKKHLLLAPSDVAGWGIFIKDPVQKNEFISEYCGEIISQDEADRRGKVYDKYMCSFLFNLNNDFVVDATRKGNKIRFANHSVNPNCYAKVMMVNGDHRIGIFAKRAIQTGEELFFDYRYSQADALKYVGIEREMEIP

Target: EZH2 (Enhancer of zeste homology 2) (human (endogenous in HL-60)) (UniProt Q15910)
Assay: affinity purification with mass spectrometry; immunoprecipitation of native, untagged EZH2 from HL-60 lysates (untreated, or stimulated with 0.1 µM AtRA) with anti-EZH2 antibodies (Abcam ab186006; Cell Signaling clone AC22) on protein A/G magnetic beads, overnight at 4 °C, against IgG isotype controls; LC-MS/MS; hits filtered by fold change over IgG, CRAPome and SAINTexpress
Conditions: not given

| Binder | binding |
| --- | --- |
| B1 | binds |
| B2 | binds |
| B3 | binds |
| B4 | binds |
| B5 | binds |
| B6 | binds |
| B7 | binds |

Target: EZH2 (Enhancer of zeste homology 2) (human (endogenous in HL-60)), Q15910
Assay: as above
Conditions: remark: other sources report otherwise

| Binder | binding |
| --- | --- |
| B8 | binds |
